Experimental data as given in publication PMC4559962.
No constants are given. Whether binding was seen depends on the method and setting. In cells and extracts the contact can be indirect. These calls come from enrichment with a bait or labelling near it, and not all partners need be listed. Tags and fused reporters may be left off the sequences shown.

T1: Wss1-Myc13 (chromosomally tagged) (S. cerevisiae) (UniProt P38838)
T1 sequence: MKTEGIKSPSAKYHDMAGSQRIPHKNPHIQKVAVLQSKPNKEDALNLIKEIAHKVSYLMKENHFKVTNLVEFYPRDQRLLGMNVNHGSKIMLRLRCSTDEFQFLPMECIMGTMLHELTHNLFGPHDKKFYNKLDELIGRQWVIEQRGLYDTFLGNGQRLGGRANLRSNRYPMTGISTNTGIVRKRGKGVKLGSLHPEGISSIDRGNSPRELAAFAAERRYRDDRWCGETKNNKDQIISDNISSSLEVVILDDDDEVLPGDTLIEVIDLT

T2: his6-Flag (HF)-Doa1 (S. cerevisiae) (UniProt P36037)
T2 sequence: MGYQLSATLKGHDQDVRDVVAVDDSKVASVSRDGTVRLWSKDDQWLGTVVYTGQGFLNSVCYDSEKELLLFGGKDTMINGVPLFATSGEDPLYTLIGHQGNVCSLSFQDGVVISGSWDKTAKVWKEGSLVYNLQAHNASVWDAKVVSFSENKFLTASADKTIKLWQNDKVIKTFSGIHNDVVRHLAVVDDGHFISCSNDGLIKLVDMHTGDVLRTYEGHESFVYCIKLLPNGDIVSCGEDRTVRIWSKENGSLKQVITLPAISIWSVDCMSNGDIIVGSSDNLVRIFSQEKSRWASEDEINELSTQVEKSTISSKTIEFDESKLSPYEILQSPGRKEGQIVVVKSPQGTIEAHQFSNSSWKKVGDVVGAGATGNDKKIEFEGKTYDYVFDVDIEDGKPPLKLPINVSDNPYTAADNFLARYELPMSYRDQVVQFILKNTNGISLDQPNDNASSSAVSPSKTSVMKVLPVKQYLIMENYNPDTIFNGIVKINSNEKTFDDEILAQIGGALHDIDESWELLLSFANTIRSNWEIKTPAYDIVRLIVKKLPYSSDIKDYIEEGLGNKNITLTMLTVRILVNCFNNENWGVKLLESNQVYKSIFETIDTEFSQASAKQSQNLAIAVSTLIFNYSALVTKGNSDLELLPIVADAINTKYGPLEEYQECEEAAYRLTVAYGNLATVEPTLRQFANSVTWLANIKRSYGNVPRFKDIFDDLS


How the values were obtained:
[1] = target: T1, Wss1-Myc13 (chromosomally tagged) (S. cerevisiae); experiment: affinity purification with mass spectrometry; Wss1-Myc13 from the endogenous locus; lysate on anti-c-Myc agarose, 1 hr at 4°C; parental strain as control; LC-MS/MS
[2] = target: T2, his6-Flag (HF)-Doa1 (S. cerevisiae); experiment: affinity purification with mass spectrometry; purified HF-Doa1 (1 mg) mixed with pre-cleared BY4742 whole cell lysate and retrieved on Ni-NTA resin; lysate without HF-Doa1 as control; LC-MS/MS; only the target purified

binding [1] | binding [2] | Binder
binds | – | Doa1 (endogenous) (protein, UniProt P36037 1-715) MGYQLSATLKGHDQDVRDVVAVDDSKVASVSRDGTVRLWSKDDQWLGTVVYTGQGFLNSVCYDSEKELLLFGGKDTMINGVPLFATSGEDPLYTLIGHQGNVCSLSFQDGVVISGSWDKTAKVWKEGSLVYNLQAHNASVWDAKVVSFSENKFLTASADKTIKLWQNDKVIKTFSGIHNDVVRHLAVVDDGHFISCSNDGLIKLVDMHTGDVLRTYEGHESFVYCIKLLPNGDIVSCGEDRTVRIWSKENGSLKQVITLPAISIWSVDCMSNGDIIVGSSDNLVRIFSQEKSRWASEDEINELSTQVEKSTISSKTIEFDESKLSPYEILQSPGRKEGQIVVVKSPQGTIEAHQFSNSSWKKVGDVVGAGATGNDKKIEFEGKTYDYVFDVDIEDGKPPLKLPINVSDNPYTAADNFLARYELPMSYRDQVVQFILKNTNGISLDQPNDNASSSAVSPSKTSVMKVLPVKQYLIMENYNPDTIFNGIVKINSNEKTFDDEILAQIGGALHDIDESWELLLSFANTIRSNWEIKTPAYDIVRLIVKKLPYSSDIKDYIEEGLGNKNITLTMLTVRILVNCFNNENWGVKLLESNQVYKSIFETIDTEFSQASAKQSQNLAIAVSTLIFNYSALVTKGNSDLELLPIVADAINTKYGPLEEYQECEEAAYRLTVAYGNLATVEPTLRQFANSVTWLANIKRSYGNVPRFKDIFDDLS
– | binds | Wss1 (endogenous) (enzyme, UniProt P38838 1-269) MKTEGIKSPSAKYHDMAGSQRIPHKNPHIQKVAVLQSKPNKEDALNLIKEIAHKVSYLMKENHFKVTNLVEFYPRDQRLLGMNVNHGSKIMLRLRCSTDEFQFLPMECIMGTMLHELTHNLFGPHDKKFYNKLDELIGRQWVIEQRGLYDTFLGNGQRLGGRANLRSNRYPMTGISTNTGIVRKRGKGVKLGSLHPEGISSIDRGNSPRELAAFAAERRYRDDRWCGETKNNKDQIISDNISSSLEVVILDDDDEVLPGDTLIEVIDLT
